{"source": "PubChem BioAssay AID504808 (Drosophila RNAi Screening Center, 2011)", "purpose": "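Chromatin factors that keep E2F targets switched off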 (primary screen)", "cells": "Drosophila S2 cells", "knock-down reagent": "long dsRNA against Drosophila genes", "detection": "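Dual luciferase plate measurements; E2F-specific signal taken as firefly over Renilla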", "scale": "E2F firefly: higher = more E2F reporter activity; Renilla normaliser: higher = more normaliser reporter signal", "hit rule": "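Called active if the normalised E2F reporter went up by over 50%; the cutoff is arbitrary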", "note": "In all, the deposit lists about 21,000 reagents; this is a random part of those that have a named target and a result. Over the whole deposit, 18 (0.084%) are marked active. 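Raw counts without plate normalisation, one of two replicates; the ratio scores behind the calls were not deposited.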 Names joined by + are all predicted targets of the reagent. Not stated in the record: the amount of reagent, the time to read-out."}
{"gene": "CG5274 (GeneID 40257)", "amplicon": "DRSC11774", "E2F firefly, rep 1": 77266, "Renilla normaliser, rep 1": 3412, "Call": "inactive"}
{"gene": "lncRNA:CR32657 (GeneID 3772397)", "amplicon": "DRSC19403", "E2F firefly, rep 1": 1.35e5, "Renilla normaliser, rep 1": 6591, "Call": "inactive"}
{"gene": "Lrr47 (GeneID 34449)", "amplicon": "DRSC03365", "E2F firefly, rep 1": 64218, "Renilla normaliser, rep 1": 3449, "Call": "inactive"}
{"gene": "Toll-6 (GeneID 39663)", "amplicon": "DRSC11304", "E2F firefly, rep 1": 1.56e5, "Renilla normaliser, rep 1": 6582, "Call": "inactive"}
{"gene": "Cyp4ac2 (GeneID 33755)", "amplicon": "DRSC03303", "E2F firefly, rep 1": 1.54e5, "Renilla normaliser, rep 1": 5344, "Call": "inactive"}
{"gene": "msk (GeneID 44747)", "amplicon": "DRSC11340", "E2F firefly, rep 1": 84900, "Renilla normaliser, rep 1": 4233, "Call": "inactive"}
{"gene": "Ir7g (GeneID 31694)", "amplicon": "DRSC18008", "E2F firefly, rep 1": 37303, "Renilla normaliser, rep 1": 3064, "Call": "inactive"}
{"gene": "CG13995 (GeneID 33851)", "amplicon": "DRSC00907", "E2F firefly, rep 1": 99040, "Renilla normaliser, rep 1": 4865, "Call": "inactive"}
{"gene": "CG13995 (GeneID 33851)", "amplicon": "DRSC02327", "E2F firefly, rep 1": 1.56e5, "Renilla normaliser, rep 1": 4798, "Call": "inactive"}
{"gene": "CG34417 (GeneID 31591)", "amplicon": "DRSC17467", "E2F firefly, rep 1": 80618, "Renilla normaliser, rep 1": 2666, "Call": "inactive"}
{"gene": "CG34417 (GeneID 31591)", "amplicon": "DRSC18332", "E2F firefly, rep 1": 50841, "Renilla normaliser, rep 1": 3836, "Call": "inactive"}
{"gene": "CG34417 (GeneID 31591)", "amplicon": "DRSC18333", "E2F firefly, rep 1": 7874, "Renilla normaliser, rep 1": 744, "Call": "inactive"}
{"gene": "Mpv17 (GeneID 43831)", "amplicon": "DRSC17198", "E2F firefly, rep 1": 1.22e5, "Renilla normaliser, rep 1": 6130, "Call": "inactive"}
{"gene": "CG1136 (GeneID 38479)", "amplicon": "DRSC08184", "E2F firefly, rep 1": 74652, "Renilla normaliser, rep 1": 4043, "Call": "inactive"}
{"gene": "Adck1 (GeneID 37938)", "amplicon": "DRSC04394", "E2F firefly, rep 1": 86003, "Renilla normaliser, rep 1": 3569, "Call": "inactive"}
{"gene": "CG4686 (GeneID 42361)", "amplicon": "DRSC15622", "E2F firefly, rep 1": 1.39e5, "Renilla normaliser, rep 1": 6263, "Call": "inactive"}
{"gene": "Sumo (GeneID 33981)", "amplicon": "DRSC03611", "E2F firefly, rep 1": 58241, "Renilla normaliser, rep 1": 3349, "Call": "inactive"}
{"gene": "Isha (GeneID 37411)", "amplicon": "DRSC04456", "E2F firefly, rep 1": 69424, "Renilla normaliser, rep 1": 3088, "Call": "inactive"}
{"gene": "CG2790 (GeneID 37992)", "amplicon": "DRSC04045", "E2F firefly, rep 1": 88700, "Renilla normaliser, rep 1": 3832, "Call": "inactive"}
{"gene": "CG10834 (GeneID 35438)", "amplicon": "DRSC03693", "E2F firefly, rep 1": 1.09e5, "Renilla normaliser, rep 1": 4195, "Call": "inactive"}
{"gene": "CG14391 (GeneID 41567)", "amplicon": "DRSC14850", "E2F firefly, rep 1": 1.52e5, "Renilla normaliser, rep 1": 5562, "Call": "inactive"}
{"gene": "CR40354 (GeneID 10178779)", "amplicon": "DRSC20923", "E2F firefly, rep 1": 77332, "Renilla normaliser, rep 1": 2777, "Call": "inactive"}
{"gene": "CG3223 (GeneID 40947)", "amplicon": "DRSC15468", "E2F firefly, rep 1": 1.26e5, "Renilla normaliser, rep 1": 6416, "Call": "inactive"}
{"gene": "Acp53C14b (GeneID 36873)", "amplicon": "DRSC06569", "E2F firefly, rep 1": 1.43e5, "Renilla normaliser, rep 1": 4781, "Call": "inactive"}
{"gene": "CG18536 (GeneID 37093)", "amplicon": "DRSC06763", "E2F firefly, rep 1": 1.54e5, "Renilla normaliser, rep 1": 4875, "Call": "inactive"}
{"gene": "Grl65a (GeneID 117342)", "amplicon": "DRSC08837", "E2F firefly, rep 1": 1.36e5, "Renilla normaliser, rep 1": 5010, "Call": "inactive"}
{"gene": "GluRIIB (GeneID 33789)", "amplicon": "DRSC03335", "E2F firefly, rep 1": 1.50e5, "Renilla normaliser, rep 1": 4856, "Call": "inactive"}
{"gene": "Cnx99A + Cnx14D", "amplicon": "DRSC16610", "E2F firefly, rep 1": 1.48e5, "Renilla normaliser, rep 1": 6221, "Call": "inactive"}
{"gene": "put (GeneID 41772)", "amplicon": "DRSC17039", "E2F firefly, rep 1": 63860, "Renilla normaliser, rep 1": 3683, "Call": "inactive"}
{"gene": "LysB (GeneID 38125)", "amplicon": "DRSC08673", "E2F firefly, rep 1": 1.01e5, "Renilla normaliser, rep 1": 3866, "Call": "inactive"}
{"gene": "Best1 (GeneID 53431)", "amplicon": "DRSC16909", "E2F firefly, rep 1": 1.52e5, "Renilla normaliser, rep 1": 6645, "Call": "inactive"}
{"gene": "Fum3 (GeneID 39281)", "amplicon": "DRSC10592", "E2F firefly, rep 1": 1.19e5, "Renilla normaliser, rep 1": 6771, "Call": "inactive"}
{"gene": "Syn1 (GeneID 40424)", "amplicon": "DRSC11803", "E2F firefly, rep 1": 1.38e5, "Renilla normaliser, rep 1": 6596, "Call": "inactive"}
{"gene": "Syn1 (GeneID 40424)", "amplicon": "DRSC11804", "E2F firefly, rep 1": 1.32e5, "Renilla normaliser, rep 1": 5660, "Call": "inactive"}
{"gene": "CG2818 (GeneID 33597)", "amplicon": "DRSC00540", "E2F firefly, rep 1": 87406, "Renilla normaliser, rep 1": 3808, "Call": "inactive"}
{"gene": "Cdc14 (GeneID 34067)", "amplicon": "DRSC03013", "E2F firefly, rep 1": 1.58e5, "Renilla normaliser, rep 1": 4533, "Call": "inactive"}
